Measured values published in paper doi:10.1101/483925.

How the values were obtained:
Experiment in all cases: EMSA
Conditions in all cases: higher order complex
[1] = test system: FD full-length + 14-3-3nu (GRF7) + TFL1
[2] = test system: FD T282E full-length + 14-3-3nu (GRF7) + TFL1
[3] = test system: FD T282E full-length + 14-3-3nu (GRF7) + FT

Measured: binding result

CGAGATGTCGACACGTGTCCAAACTCAT (double strand) [SEP3 promoter G-box probe]
binds: all assays above

The exact form of at least one protein or probe is not confirmed. At least one verdict rests on a figure or table, not on a statement of the authors.
